Experimental data taken from patent EP1757617A1.
No constants are given. Whether binding was seen depends on the method and setting. Some binding calls cover weakened binding; strength is not graded here.

Amino acid sequences for entries named in this document (tags omitted). A change or cut given only in a name is not applied to a line headed by its entry.
UniProt G3V9H8: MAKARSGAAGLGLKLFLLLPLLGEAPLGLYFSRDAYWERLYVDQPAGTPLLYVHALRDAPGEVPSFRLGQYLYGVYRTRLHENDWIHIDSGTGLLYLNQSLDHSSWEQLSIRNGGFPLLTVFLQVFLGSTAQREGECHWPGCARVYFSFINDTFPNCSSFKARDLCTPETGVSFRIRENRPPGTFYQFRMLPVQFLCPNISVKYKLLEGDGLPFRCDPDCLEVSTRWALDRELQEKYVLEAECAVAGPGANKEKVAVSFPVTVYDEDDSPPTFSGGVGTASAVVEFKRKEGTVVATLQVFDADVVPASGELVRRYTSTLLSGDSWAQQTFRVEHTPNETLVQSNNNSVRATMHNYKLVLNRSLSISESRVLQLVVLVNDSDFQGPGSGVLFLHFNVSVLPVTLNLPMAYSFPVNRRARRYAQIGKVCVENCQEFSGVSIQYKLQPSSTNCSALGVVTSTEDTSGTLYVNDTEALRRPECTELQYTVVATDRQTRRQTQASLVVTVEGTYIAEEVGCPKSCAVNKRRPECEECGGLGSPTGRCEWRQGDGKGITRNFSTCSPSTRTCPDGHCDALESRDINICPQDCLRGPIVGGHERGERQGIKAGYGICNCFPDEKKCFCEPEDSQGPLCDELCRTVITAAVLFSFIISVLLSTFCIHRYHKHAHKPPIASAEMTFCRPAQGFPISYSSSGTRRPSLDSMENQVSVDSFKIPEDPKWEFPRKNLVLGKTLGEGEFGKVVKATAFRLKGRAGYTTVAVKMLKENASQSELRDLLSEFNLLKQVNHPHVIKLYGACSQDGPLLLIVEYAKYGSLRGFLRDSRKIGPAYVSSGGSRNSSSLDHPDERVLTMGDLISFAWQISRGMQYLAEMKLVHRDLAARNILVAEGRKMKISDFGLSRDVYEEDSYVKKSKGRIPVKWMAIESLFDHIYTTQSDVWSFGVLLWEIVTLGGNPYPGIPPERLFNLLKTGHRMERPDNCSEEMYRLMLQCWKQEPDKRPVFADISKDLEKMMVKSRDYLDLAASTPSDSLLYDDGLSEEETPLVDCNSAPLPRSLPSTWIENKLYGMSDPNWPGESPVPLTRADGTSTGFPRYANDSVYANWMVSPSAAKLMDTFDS

Legend:
[1] = target: T1, human RetL2 expressed on 293/EBNA cells from the insert of clone DSW240 (human) (UniProt O00451); test: staining of transfected 293/EBNA cells with 20 ug/ml rat Ret/IgG and AP-coupled anti-human IgG
T1 sequence: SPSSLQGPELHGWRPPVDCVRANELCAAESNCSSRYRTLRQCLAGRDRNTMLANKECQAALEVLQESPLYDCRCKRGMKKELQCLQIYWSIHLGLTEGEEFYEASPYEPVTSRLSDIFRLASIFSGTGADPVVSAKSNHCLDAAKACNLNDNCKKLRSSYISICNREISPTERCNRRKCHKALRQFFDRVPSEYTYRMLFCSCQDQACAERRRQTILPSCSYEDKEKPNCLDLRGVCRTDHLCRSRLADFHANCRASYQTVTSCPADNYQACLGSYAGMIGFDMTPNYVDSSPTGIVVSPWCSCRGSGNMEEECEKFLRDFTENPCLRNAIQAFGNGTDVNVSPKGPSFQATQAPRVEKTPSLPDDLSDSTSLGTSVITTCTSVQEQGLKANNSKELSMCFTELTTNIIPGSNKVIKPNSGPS

[2] = target: T1, human RetL2 expressed on 293/EBNA cells from the insert of clone DSW240 (human); test: staining of transfected 293/EBNA cells with rat Ret/IgG

binding [1]: binds
binding [2]: binds
Substance: rat Ret/IgG fusion protein (from UniProt G3V9H8 24-637) (Fc fusion)
